This test can be described thus: IkB Signaling. Particulars: ABC-DLBCL IkBa-CBG/CBR dual luciferase ratio (green luciferase fused to IkBa over red control in OCI-Ly3 lymphoma cells), 4 h. In outline:
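In this assay, an IκBα–CBG68 fusion accumulates when IKK-driven degradation is blocked; native CBR normalizes for cell number. OCI-Ly3 cells were treated 4 h with compound and doxycycline, then green and red light read after Chroma-Glo addition.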

Setting [1] is: measured here: control luc red channel unless noted.

Some of the results follow. Further columns of the screen follow, without active or inactive calls. Compounds called inactive in the main read-out are mostly missing here. Words in brackets tell the shape of the fitted curve; partial curves, single points and poor fits give uncertain potencies.

Regarding `O=C(c1ccco1)N1CCN(C(=O)c2cc(-c3ccccn3)nc3ccc(Cl)cc23)CC1`, the AC50 runs as follows: (measured here: IkB-luc green channel) 39.8 µM [rising, single point]; (measured here: control luc red channel) 7.94 µM [falling, partial curve]. Take `CCN(CC)C(=O)C1=CC(c2ccc3c(c2)OCO3)=NS(=O)(=O)N1C`: the AC50 under setting [1] was 15.8 µM [falling, single point].

With `COC(=O)c1ccc(CN(Cc2ccc(OC)c(OC)c2)S(=O)(=O)c2cc(C(=O)Nc3cccc(C)c3)ccc2F)cc1`, the AC50 under setting [1] is 2.51 µM [falling, full curve]. Take `CCC(Oc1ccccc1)C(=O)Nc1ccc(OCc2cc(=O)n3ccc(C)cc3n2)cc1` (configuration not stated): the AC50 under setting [1] was 25.1 µM [falling, partial curve, poor fit].

For `COc1ccccc1CNC(=O)c1ccc2c(c1)N(Cc1ccc(C)cc1)CCS2`, the AC50 under setting [1] is 12.6 µM [falling, partial curve]. Turning to `CCn1nc(C(=O)OCC(=O)c2c[nH]c3ccccc23)c2ccccc2c1=O`, under setting [1], the AC50 is 20 µM [falling, single point].

In the case of `Clc1cccc(Nc2ncnc3c2cnn3-c2ccccc2)c1`, the AC50 under setting [1] is 10 µM [falling, partial curve]. For `CCN(CC)S(=O)(=O)c1ccc2c(c1)N(CC(=O)NCC(C)c1ccccc1)C(=O)CO2` (configuration not stated), under setting [1], the AC50 is 7.94 µM [falling, single point]. Still for that read-out and setting: to `CCn1cc(C(=O)N2CCN(c3ccccc3OC)CC2)c(=O)c2cc(S(=O)(=O)N3CCC(C)CC3)ccc21` belongs 1 µM [falling, partial curve]; to `O=C(COc1ccccc1)N1CCN(c2ncnc3c2cnn3-c2ccccc2)CC1`, 39.8 µM [falling, single point]. As for `Cc1ccc(-n2ncc3c(N4CCCCCC4)ncnc32)cc1C`, the AC50 under setting [1] is 15.8 µM [falling, partial curve]. For the compound `CCOc1ccc(CNC(=O)CCc2cn(CC)c3ccccc23)cc1`, the half-maximal activity concentration (AC50) under setting [1] is 10 µM [falling, partial curve]. For the compound `O=C(NCCc1ccccc1)c1ccc(CSc2nc3ccncc3n2Cc2cccc(F)c2)cc1`, under setting [1], the AC50 was 10 µM [falling, partial curve]. `CCCCOc1ccc(CN2C(=O)C(=O)c3cc(C)ccc32)cc1OC`: the AC50 under setting [1] was 5.01 µM [rising, partial curve]. As for `COc1ccccc1CNc1ccc(-c2nc(-c3cccc(C)c3)no2)cc1[N+](=O)[O-]`, the AC50 under setting [1] was 1 µM [rising, full curve]. As to `CCOc1ccccc1N1CC(c2nc3ccccc3n2CCCCOc2cc(C)ccc2C)CC1=O` (configuration not stated), under setting [1], the AC50 is 12.6 µM [falling, partial curve]. On to `CC(C)CCNC(=O)c1cc(Sc2ccc(F)cc2F)nc2ccccc12`, for which, under setting [1], the AC50 was 0.794 µM [rising, full curve]. On to `Cc1ccc2c(c1)c1ncnc(N3CCc4ccccc4C3)c1n2C`, for which the AC50 under setting [1] is 31.6 µM [falling, single point].

As to `CCOc1ccccc1-n1c(SCC(=O)N2CCCC2)nnc1-c1ccoc1C`, under setting [1], the AC50 was 15.8 µM [falling, partial curve]. Take `CCOC(=O)c1cnc2c(C)cc(C)cc2c1Nc1ccc(OCc2ccccc2)cc1`: the AC50 under setting [1] was 25.1 µM [falling, partial curve].

With `O=C(CN1CCN(CC(=O)Nc2ccccc2F)CC1)Nc1ccc(Cl)c(C(F)(F)F)c1`, the AC50 under setting [1] is 31.6 µM [falling, single point]. `CCOC(=O)C1=C(C(F)(F)F)Nc2ncnn2C1c1cccc(OC)c1OC` (configuration not stated): the AC50 under setting [1] was 1.26 µM [rising, full curve]. Regarding `Cn1c2ccccc2c2nnc(SCN3C(=O)c4ccccc4C3=O)nc21`, the half-maximal activity concentration (AC50) under setting [1] was 31.6 nM [rising, partial curve, poor fit] [measured here: IkB-luc green channel]. Take `Cc1c(CNCCCc2ccccc2)c(C(=O)O)c(C)n1Cc1cccc(Cl)c1`: the AC50 under setting [1] was 15.8 µM [falling, single point]. For `OC[C@@H]1O[C@@H](n2cnc3c(NC4CCCC4)ncnc32)[C@@H](O)[C@H]1O`, the AC50 under setting [1] was 3.16 µM [rising, full curve] [measured here: IkB-luc green channel]. For `CCC1=C(c2ccc(C)cc2)S(=O)(=O)N=C1N1CCC(C(=O)N2CCCCC2)CC1`, the half-maximal activity concentration (AC50) under setting [1] was 20 µM [falling, single point].

On to `CCN(CC)S(=O)(=O)c1ccc2oc(SCC3CN=C(c4ccc(OC)cc4)S3)nc2c1` (configuration not stated), for which the AC50 under setting [1] was 2 µM [falling, full curve, poor fit]. Same read-out and setting: the result for `CCn1c(=O)n(CC(=O)NCc2ccccc2OC)c(=O)c2ccccc21` reads 0.631 µM [falling, full curve]. For the compound `CN(Cc1ccccc1)c1ccc(-c2nc(-c3cccnc3)no2)cc1[N+](=O)[O-]`, under setting [1], the AC50 is 2.51 µM [falling, partial curve].

Regarding `CCN(Cc1ccccc1)S(=O)(=O)c1ccc2[nH]c3c(c2c1)CCCCC3`, the AC50 under setting [1] is 7.94 µM [falling, partial curve]. For the compound `CCC(C(=O)NCCc1cc(OC)ccc1OC)n1nc(C)c2sc3ccccc3c2c1=O` (configuration not stated), the AC50 under setting [1] is 10 µM [falling, partial curve]. As for `Cc1ccc(C)c(N2CCN(C(=O)C3CCN(S(=O)(=O)c4cccc5nsnc45)CC3)CC2)c1`, the AC50 under setting [1] is 10 µM [falling, partial curve].

On to `CCCCOc1ccc(C(=O)NCCc2csc(-c3ccc(OC)cc3)n2)cc1`, for which, under setting [1], the AC50 is 20 µM [falling, partial curve]. The same measure, in the same setting: to `Cc1ccc(C(=O)CSc2nnc(CNc3nc(-c4ccccc4)cs3)n2C)cc1` belongs 15.8 µM [falling, partial curve]; to `COc1ccccc1NC(=O)Nc1ccc(Br)cn1`, 1.26 µM [falling, full curve]; to `c1cnc2c(OCc3nc4ccccc4[nH]3)cccc2c1`, 3.98 µM [falling, full curve]. Regarding `Cc1ccc(NS(=O)(=O)c2ccc3[nH]c4c(c3c2)CCCCC4)cc1`, the AC50 under setting [1] was 15.8 µM [falling, partial curve]. With `CC(=O)N1CCc2cc(S(=O)(=O)N3CCN(c4ccc(C)cc4)C(C)C3)ccc21` (configuration not stated), the AC50 under setting [1] is 39.8 µM [falling, partial curve, poor fit]. Consider `CCc1ccc(OCC(=O)Nc2ccc(Cl)c(-c3nc4ncccc4o3)c2)cc1`, for which the concentration at half-maximal activity (AC50) under setting [1] was 12.6 µM [falling, partial curve]. For `CCOc1ccc(S(=O)(=O)NCC(c2cccs2)S(=O)(=O)c2ccc(C)cc2)cc1` (configuration not stated), the AC50 under setting [1] was 20 µM [falling, partial curve, poor fit]. Consider `Cc1ccc(C)c(N(C)S(=O)(=O)c2ccc3[nH]cc(C(=O)NC4CCCC4)c(=O)c3c2)c1`, for which the concentration at half-maximal activity (AC50) under setting [1] was 25.1 µM [falling, partial curve]. Consider `CC(C)(C)NC(=O)CCSc1nc(-c2ccc3c(c2)OCO3)cc(C(F)(F)F)n1`, for which the AC50 under setting [1] is 31.6 µM [falling, single point]. The same measure, in the same setting: the result for `COc1cccc2sc(N(Cc3cccnc3)C(=O)c3ccc(S(=O)(=O)N(C)C)cc3)nc12` reads 39.8 µM [falling, single point]; that for `COc1ccccc1CNC(=O)c1cc2cc(S(=O)(=O)N3CCCCC3)ccc2n1C`, 3.16 µM [falling, partial curve]; that for `COc1cc2c(cc1OC)C(c1cc(OC)c(O)c(OC)c1)CC(=O)N2` (configuration not stated), 31.6 µM [rising, single point]. As to `Cc1ccc(-c2c(C)n3c4c(=O)n(C)c(=O)n(C)c4nc3n2CCCO)cc1`, under setting [1], the AC50 is 20 µM [falling, partial curve]. For `O=C(CCn1cnnn1)Nc1ccccc1`, the AC50 under setting [1] was 0.631 µM [falling, full curve, poor fit].

Regarding `COc1cc(-c2csc(C)n2)ccc1O`, the AC50 under setting [1] was 2 µM [rising, partial curve] [measured here: IkB-luc green channel]. Turning to `CCOc1ccc(NC(=O)C2CCCN(S(=O)(=O)c3ccc(Br)s3)C2)cc1` (configuration not stated), the half-maximal activity concentration (AC50) under setting [1] was 0.1 µM [falling, full curve]. As to `CC(=O)N1c2c(cc(Br)cc2S(=O)(=O)Nc2ccccc2C)CC1C` (configuration not stated), the AC50 under setting [1] is 15.8 µM [falling, partial curve]. Regarding `COc1ccc(C2SCCN2S(=O)(=O)c2ccccc2)cc1OC` (configuration not stated), the AC50 under setting [1] is 39.8 µM [falling, single point].

For the compound `CCOc1cc(Br)c(C2C(C(=O)OC)=C(C)NC3=C2C(=O)c2ccccc23)cc1OCC` (configuration not stated), the AC50 under setting [1] was 15.8 µM [falling, partial curve]. For the compound `O=C(Nc1cccc(C(F)(F)F)c1)c1ccc(F)c(S(=O)(=O)N2CCc3ccccc3C2)c1`, under setting [1], the AC50 is 0.794 µM [falling, full curve]. Turning to `Cc1nn(Cc2ccccc2)c(Cl)c1C(=O)OCc1nnc(-c2ccccc2)o1`, the AC50 under setting [1] was 25.1 µM [falling, partial curve].

On to `CC(=O)N1CCCc2cc(S(=O)(=O)N3CCC(N(C)C(C)C)CC3)ccc21`, for which, under setting [1], the AC50 was 1.26 µM [rising, full curve, poor fit].

For the compound `Cc1cc(Nc2cccc(O)c2)c2cccc(Br)c2n1`, the AC50 under setting [1] was 39.8 µM [falling, single point]. As for `CCOc1ccc(OCC(=O)c2c(O)c3ccccc3oc2=O)cc1`, under setting [1], the AC50 was 1 µM [falling, full curve]. Regarding `CCc1ccc(S(=O)(=O)c2cn(CC(=O)Nc3cccc(C)c3)c3ccc(Cl)cc3c2=O)cc1`, under setting [1], the AC50 was 1.58 µM [rising, partial curve].

For `COc1nnc(-c2ccc(N3CCCCC3)c(NC(=O)c3ccc(Cl)cc3)c2)c2ccccc12`, the AC50 under setting [1] was 10 µM [falling, partial curve]. In the case of `CCc1cc(=O)[nH]c(SCc2nc(-c3ccccc3C)no2)n1`, the AC50 under setting [1] is 39.8 µM [falling, single point].

Turning to `COc1ccc(OC)c(NC(=O)c2nc(SCc3ccc(F)cc3)ncc2Cl)c1`, the concentration at half-maximal activity (AC50) under setting [1] is 25.1 µM [falling, single point].

The values are drawn from PubChem BioAssay AID445 (National Center for Advancing Translational Sciences (NCATS), 2006).
